In publication PMC6115394:
Results are given in words; binding and its absence hold for the method and conditions named. Binding seen in cells or lysates may run through a third protein. Some entries that bind do so weakly or less than the wild type.

Protein sequences, listed by entry. Tags and fused reporters are not part of them. Residues count along the entry.
UniProt P04785, residues 20-509: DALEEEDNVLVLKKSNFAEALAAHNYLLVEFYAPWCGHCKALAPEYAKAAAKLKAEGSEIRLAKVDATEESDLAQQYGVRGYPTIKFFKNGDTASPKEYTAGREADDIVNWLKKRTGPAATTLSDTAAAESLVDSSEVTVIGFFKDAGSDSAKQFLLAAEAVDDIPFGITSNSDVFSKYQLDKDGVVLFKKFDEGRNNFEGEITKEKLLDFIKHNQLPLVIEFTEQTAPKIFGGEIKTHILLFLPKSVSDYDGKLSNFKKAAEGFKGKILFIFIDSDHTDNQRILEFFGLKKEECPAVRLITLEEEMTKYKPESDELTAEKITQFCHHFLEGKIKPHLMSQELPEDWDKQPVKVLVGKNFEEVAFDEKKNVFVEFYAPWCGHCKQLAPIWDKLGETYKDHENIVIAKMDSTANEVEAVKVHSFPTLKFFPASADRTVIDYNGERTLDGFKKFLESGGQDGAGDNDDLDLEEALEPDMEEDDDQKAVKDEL
UniProt O35303: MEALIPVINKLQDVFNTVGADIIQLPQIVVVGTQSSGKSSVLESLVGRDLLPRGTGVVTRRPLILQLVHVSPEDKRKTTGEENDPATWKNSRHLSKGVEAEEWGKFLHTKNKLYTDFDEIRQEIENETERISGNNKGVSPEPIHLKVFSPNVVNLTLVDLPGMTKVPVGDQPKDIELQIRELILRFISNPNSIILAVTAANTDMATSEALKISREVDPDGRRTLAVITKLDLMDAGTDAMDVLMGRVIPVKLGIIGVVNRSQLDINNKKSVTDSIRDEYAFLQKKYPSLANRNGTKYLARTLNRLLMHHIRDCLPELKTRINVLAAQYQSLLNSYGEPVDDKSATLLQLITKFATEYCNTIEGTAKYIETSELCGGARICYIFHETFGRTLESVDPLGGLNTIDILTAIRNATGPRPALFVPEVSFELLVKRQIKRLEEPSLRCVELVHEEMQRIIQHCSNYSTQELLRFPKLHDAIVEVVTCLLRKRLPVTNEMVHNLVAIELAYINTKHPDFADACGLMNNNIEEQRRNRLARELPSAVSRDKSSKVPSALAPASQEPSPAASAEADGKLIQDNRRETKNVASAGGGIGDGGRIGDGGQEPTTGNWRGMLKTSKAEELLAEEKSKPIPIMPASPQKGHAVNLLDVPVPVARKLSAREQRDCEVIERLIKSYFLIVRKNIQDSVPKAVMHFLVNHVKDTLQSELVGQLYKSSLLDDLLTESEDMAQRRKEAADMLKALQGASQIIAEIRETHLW

How the values were obtained:
[1] = target: Protein disulfide isomerase (rat (endogenous in hippocampal CA1 tissue)) (UniProt P04785); experiment: condition: only 3 days after status epilepticus (SE); co-IP; as a1, but tissue taken 3 days after pilocarpine-induced status epilepticus (SE), from animals infused with vehicle or L-NAME; compared with non-SE control animals
[2] = target: Protein disulfide isomerase (rat (endogenous in hippocampal CA1 tissue)) (UniProt P04785); experiment: co-IP; rat CA1 tissue lysed in RIPA buffer with protease and phosphatase inhibitors; equal amounts of protein precipitated with PDI antibody and protein G sepharose at 4 °C overnight; western blot for DRP1; non-SE (normal) animals infused with vehicle, L-NAME, control siRNA or PDI siRNA

- binding [1]: no binding
- binding [2]: binds
Substance: Dynamin-related protein 1 (from UniProt O35303 1-755)
